Assay results taken from PubChem BioAssay AID504444 (National Center for Advancing Translational Sciences (NCATS), 2011).
Screen size: about 360,000 compounds; about 7,500 (2.1%) were called active. Inconclusive means that the source gave no clear call. Such entries were picked first, then a sample of the others. The call rests on the fitted dose curve; in most records, active means well fitted inhibition curve with a large enough effect; inconclusive means small, poorly fitted or top-dose-only effect, or effect the other way; inactive means flat fitted curve, though single readings scatter. A potency beside an inconclusive call is a rough fit, not a confirmed value.
Potency means the concentration at half of the fitted maximal effect.

Assay: Nrf2 qHTS screen for inhibitors; further: nearly all actives have a fitted effect of over 60% in size
Settings: A549 ARE-Fluc reporter, luciferase luminescence, 18-24 h; series mostly up to 46 µM
Procedure, shortened: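 A549 ARE_Fluc cells (5000/well, 5% FBS OPTI-MEM) pre-incubated 2 h, then treated with compounds 18-24 h at 37C/5% CO2 in concentration-response. CellTiter-Fluor viability read first; BugLite luciferase luminescence after 15 min at room temperature gives Nrf2 activity.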
For `CCOC(=O)c1c(C)oc2ncnc(Nc3ccc(OCC)cc3)c12`, the Potency was “inactive”.
In the case of `CC1(c2ccccc2)NC(=O)N(CC(=O)N2CCN(S(=O)(=O)c3cccc([N+](=O)[O-])c3)CC2)C1=O` (stereo not drawn), the Potency is reported as inconclusive: 0.0058 µM [falling, full curve, poor fit].
With `COc1ccc2cc(N3CCCC3=O)ccc2c1` the Potency was inconclusive: 5.8 µM [activator, full curve].
In the case of `O=C(NCCCO)c1cc2c([nH]c3ccccc32)c(-c2ccc(F)cc2)n1`, the Potency is reported as inconclusive: 18.4 µM [falling, single point].
For `COc1ccc(C(c2nnnn2CCc2ccccc2)N2CCN(C3CCCC3)CC2)cc1` (stereo not drawn), the Potency was inconclusive: 0.103 µM [falling, full curve, poor fit].
For `CCOc1cc(N2CCOCC2)c(OCC)cc1NC(=O)c1nn(CC)c(=O)c2ccccc12`, the Potency was “inactive”.
For `Cc1cc(C)n(-c2ccc(Cl)c(C(=O)OCC(=O)N3CCCCC3C)n2)n1` (stereo not drawn), the Potency was inconclusive: 18.4 µM [activator, partial curve, poor fit].
In the case of `O=C(Nc1ccc(F)cc1F)c1ccc2nc(N3CCOCC3)sc2c1`, the Potency is reported as inconclusive: 16.4 µM [falling, partial curve, poor fit].
With `Oc1ccc(Nc2nc(N3CCCC3)c3ccccc3n2)cc1` the Potency was inconclusive: 29.1 µM [falling, single point].
In the case of `Cc1cc(C(=O)COC(=O)c2ccc(O)cc2)c(C)n1CCc1ccc(F)cc1`, the Potency is reported as “inactive”.
In the case of `CCN(CC(=O)Nc1c(F)cccc1F)C(=O)c1cc(S(=O)(=O)N(CC)CC)ccc1N1CCCCC1`, the Potency is reported as active: 8.2 µM.
In the case of `Cc1cccc(CSc2cn(CC(=O)N3CCCCC3)c3ccccc23)c1`, the Potency is reported as inconclusive: 29.1 µM [falling, single point].
In the case of `N/C(=N\O)c1ccc(NC(=O)c2cccs2)cc1`, the Potency is reported as inconclusive: 9.2 µM [activator, partial curve].
For `Cc1ccccc1NC(=O)c1ccc(N/N=C/c2ccccc2O)c([N+](=O)[O-])c1`, the Potency was “inactive”.
In the case of `CCCC(=O)OC1=CN(Cc2ccccc2)S(=O)(=O)c2ccccc21`, the Potency is reported as “inactive”.
For `O=C(Cn1cc(SCc2cccc(F)c2)c2ccccc21)N1CCOCC1`, the Potency was inconclusive: 14.6 µM [activator, single point].
With `c1ccc(Cn2ncc3c(NCc4ccco4)ncnc32)cc1` the Potency was inconclusive: 29.1 µM [falling, single point].
In the case of `N#Cc1c(-c2ccccc2)[nH]c(=O)[nH]c1=O`, the Potency is reported as inconclusive: 0.13 µM [falling, full curve, poor fit].
With `C/C(=N/NC(N)=S)c1ccc(Br)s1` the Potency was inconclusive: 29.1 µM [falling, single point].
With `COc1cc(OC)c(NC(=O)CSc2nccn2C)cc1Cl` the Potency was inconclusive: 18.4 µM [activator, partial curve, poor fit].
In the case of `CCS(=O)(=O)c1ccc2oc(SCC(=O)N3CCCCC3)nc2c1`, the Potency is reported as inconclusive: 16.4 µM [falling, partial curve].
In the case of `CC1CCN(c2oc(-c3cccs3)nc2S(=O)(=O)c2ccc(Cl)cc2)CC1`, the Potency is reported as “inactive”.
With `O=C(NC1CC1)c1ccc(S(=O)(=O)NC2CCCCCC2)cc1` the Potency was inconclusive: 14.6 µM [falling, partial curve, poor fit].
In the case of `Cc1ccc(CNC(=O)c2ccc(-n3c(C)cc4c3CCCC4)cc2)cc1`, the Potency is reported as inconclusive: 18.4 µM [falling, partial curve, poor fit].
For `CCC(C)NC(=O)c1csc2c1CCCCC2` (stereo not drawn), the Potency was inconclusive: 20.6 µM [activator, partial curve, poor fit].
In the case of `Cc1ccc(OCC(=O)Nc2ccc3nc(SCC(=O)N4CCCC4)sc3c2)cc1`, the Potency is reported as inconclusive: 29.1 µM [falling, single point].
In the case of `O=C(CNC(=O)c1ccccc1)NCCCSc1ccccc1`, the Potency is reported as inconclusive: 25.9 µM [activator, single point].
With `CC(C)CN(Cc1c(O)ccc2c3c(c(=O)oc12)CCC3)CC(C)C` the Potency was “inactive”.
In the case of `Cc1cccc(NC(=O)C2CCCN(C(=O)NCc3ccccc3)C2)c1C` (stereo not drawn), the Potency is reported as inconclusive: 6.51 µM [activator, single point].
In the case of `O=C(CN1C(=O)NC2(CCCC2)C1=O)Nc1cccc(Cl)c1`, the Potency is reported as inconclusive: 20.6 µM [activator, partial curve, poor fit].
For `CNC(=O)c1ccc2c(c1)N=C(C)c1cc(C)ccc1S2`, the Potency was inconclusive: 14.6 µM [activator, single point].
With `CC(=O)N1c2ccc(S(=O)(=O)N3CCN(c4ccc(C)cc4C)CC3)cc2CC1C` (stereo not drawn) the Potency was inconclusive: 29.1 µM [falling, single point].
In the case of `O=C(CSc1cccc[n+]1[O-])c1ccccc1Br`, the Potency is reported as inconclusive: 20.6 µM [activator, partial curve, poor fit].
With `CC(=O)Nc1nc(-c2ccccc2)c(-c2ccccc2)o1` the Potency was “inactive”.
With `CCC(=O)Nc1cccc(-c2cnc3ccccc3n2)c1` the Potency was “inactive”.
In the case of `O=C(Nc1ccccc1)N1CCc2ccccc21`, the Potency is reported as inconclusive: 11.6 µM [activator, single point].
For `COc1cccc(Cn2ncc3c4sc(SC)cc4n(C)c3c2=O)c1`, the Potency was inconclusive: 20.6 µM [falling, single point].
For `O=C(c1cccc(C(F)(F)F)c1)C1CCCN(Cc2cccc(OCCO)c2)C1` (stereo not drawn), the Potency was inconclusive: 18.4 µM [falling, partial curve, poor fit].
For `Nc1cc(C(=O)N2CCN(c3ccc([N+](=O)[O-])cc3)CC2)ccc1N1CC2CC(C1)c1cccc(=O)n1C2` (stereo not drawn), the Potency was inconclusive: 20.6 µM [falling, partial curve, poor fit].
In the case of `COc1ccc(C(=O)COC(=O)c2n[nH]c3ccccc23)c(OC)c1`, the Potency is reported as inconclusive: 2.91 µM [activator, full curve].
For `O=C1c2ccccc2C(=O)N1CCc1nc(-c2ccccn2)no1`, the Potency was inconclusive: 18.4 µM [activator, single point].
In the case of `O=C(Nc1ccccc1N1CCOCC1)c1cnccn1`, the Potency is reported as “inactive”.
With `O=C(c1cc(-c2ccc(Br)cc2)n[nH]1)N1CCN(S(=O)(=O)c2ccc(Br)cc2)CC1` the Potency was “inactive”.
